Reference: paper PMC7593309

Chains of the proteins cited; added tags and fusions are not shown.
UniProt Q9LSX0, whole entry W23A: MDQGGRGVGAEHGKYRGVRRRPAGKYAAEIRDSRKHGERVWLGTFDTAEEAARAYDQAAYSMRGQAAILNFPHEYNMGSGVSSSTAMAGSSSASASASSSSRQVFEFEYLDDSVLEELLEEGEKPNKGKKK

Target: AtERF96 W23A (Arabidopsis thaliana) (UniProt Q9LSX0)
Assay: EMSA
Conditions: fEMSA: 30 mM HEPES pH 7.4, 62.5 mM NaCl, 5% glycerol, 30 min RT, gel at 4 C; recombinant protein; residues 1-131; protein details: N-terminal 6xHis (pET28a); label: 5'-fluorescein on forward strand

“TAGCCGCCAGC (double strand) [GCC11 probe (fEMSA)]”: binds more weakly.

A weaker result is weaker than the reference pair of the same experiment.
